In PubChem BioAssay AID322 (DTP/NCI, 2004):
The list shows only some results of the screen, not a fair sample: it gathers tests that were run many times, whatever their T/C, doses with no T/C, and many T/C values between a quarter and a half above the control. Further doses and runs are listed elsewhere. T/C is the treated group as % of the vehicle group. Some doses have a count of surviving animals in place of a T/C: the source holds a T/C of zero for them, seemingly a mark for toxic or unscored doses. Some survivor counts are full or nearly so, which does not show that the dose was tolerated: survival well below the control is almost never listed, so the zero probably covers shortened survival too. Survivors were counted at the toxicity check, usually on the fifth day, unless a day is given; later deaths do not show. Schedule codes are those of the source, read here as Q, the interval in days (D) or hours (H), X, the number of doses. Some entries were tested several times; their values stand side by side, smallest first. Counts like (3×) say how often a value occurs here. For survival time, this PubChem deposit counts one and a half times the control or more as active, and values a quarter to a half above the control carry no call in these data; other NCI protocols may use other cut-offs. Some T/C values carry the count of animals alive at the toxicity check (mostly the fifth day); where none is given, no animal had died by that day.

Test system: CD2F1 mice, P388/ADR leukemia ip, median survival T/C
Experiment: NCI In Vivo Anticancer Drug Screen. Data for tumor model P388 Leukemia resistant to Adriamycin; NSC 123127, Developed at Scr 08 (intraperitoneal) in CD2F1 (CDF1) mice
Conditions: T/C endpoint: median survival time, higher T/C = longer survival
Procedure: The antitumor activity of compounds was measured in mice bearing transplantable tumors. Survival or tumor size were measured and the results are expressed as the measurement made in the treated group (T) divided by the measurement made in the vehicle treated control group (C). The tumor model used in this assay is P388 Leukemia resistant to Adriamycin; NSC 123127, Developed at Scr 08 (intraperitoneal) in CD2F1 (CDF1) mice

## COc1cccc2c1C(=O)c1c(O)c3c(c(O)c1C2=O)C[C@@](O)(C(=O)CO)C[C@@H]3OC1CC(N)C(O)C(C)O1 (stereo not given in full)
dose: 0.51 mg/kg/injection, schedule: Q01DX009 (ip), vehicle: saline
  survivor count: 8 of 8
dose: 0.72 mg/kg/injection, schedule: Q01DX009 (ip), vehicle: saline
  survivor count: 8 of 8
dose: 0.86 mg/kg/injection, schedule: Q01DX009 (ip), vehicle: saline
  survivor count: 8 of 8
dose: 1.0 mg/kg/injection, schedule: Q04DX003 (ip), vehicle: saline
  T/C: 139 % of control
dose: 1.25 mg/kg/injection, schedule: Q01DX001 (ip), vehicle: water
  T/C: 125 % of control
dose: 1.44 mg/kg/injection, schedule: Q01DX009 (ip), vehicle: saline
  survivor count: 8 of 8
dose: 2.0 mg/kg/injection, schedule: Q04DX003 (ip), vehicle: saline
  T/C: 142 % of control
dose: 2.4 mg/kg/injection, schedule: Q01DX009 (ip), vehicle: saline
  survivor count: 8 of 8
dose: 2.5 mg/kg/injection, schedule: Q01DX001 (ip), vehicle: saline
  T/C: 131 % of control
dose: 3.0 mg/kg/injection, schedule: Q01DX009 (ip), vehicle: saline
  survivor count: 8 of 8
dose: 4.0 mg/kg/injection, schedule: Q01DX009 (ip), vehicle: saline
  survivor count: 8 of 8
dose: 4.0 mg/kg/injection, schedule: Q04DX002 (ip), vehicle: saline
  T/C: 133 % of control
dose: 4.0 mg/kg/injection, schedule: Q04DX003 (ip), vehicle: saline
  T/C: 136 % of control
dose: 4.4 mg/kg/injection, schedule: Q01DX001 (ip), vehicle: saline
  T/C: 132 % of control
dose: 4.4 mg/kg/injection, schedule: Q04DX003 (ip), vehicle: saline
  T/C: 144 % of control
dose: 4.5 mg/kg/injection, schedule: Q01DX001 (ip), vehicle: saline, evaluated on day 20
  T/C: 111 and 139 % of control
dose: 4.5 mg/kg/injection, schedule: Q01DX001 (ip), vehicle: saline, evaluated on day 23
  T/C: 110 % of control
dose: 4.5 mg/kg/injection, schedule: Q01DX001 (ip), vehicle: saline, evaluated on day 30
  T/C: 90, 93, 96, 99, 100, 101 [9 of 10 alive], 102, 103, 109 (3×), 110 (2×), 111, 112, 115, 116, 117, 118 (2×), 119 (3×), 120 (2×), 121 (2×), 123 (2×), 126 (3×), 128, 129 (3×), 130 (3×), 131, 132, 134 (2×), 135 (4×), 136 (2×), 137, 138, 140 (2×), 142, 143, 144 (2×), 146, 147, 148 % of control
dose: 4.5 mg/kg/injection, schedule: Q01DX001 (ip), vehicle: saline, evaluated on day 45
  T/C: 130, 133, 134, 140 (2×), 141, 145 % of control
dose: 4.5 mg/kg/injection, schedule: Q01DX001 (ip), vehicle: saline, evaluated on day 46
  T/C: 134 % of control
dose: 4.5 mg/kg/injection, schedule: Q01DX001 (ip), vehicle: saline, evaluated on day 56
  T/C: 126 % of control
dose: 4.5 mg/kg/injection, schedule: Q01DX001 (ip), vehicle: saline, evaluated on day 60
  T/C: 131, 134, 135, 140, 148 % of control
dose: 4.5 mg/kg/injection, schedule: Q01DX001 (ip), vehicle: saline
  survivor count: 1 of 10 and 6 of 10
dose: 4.5 mg/kg/injection, schedule: Q01DX005 (ip), vehicle: saline
  T/C: 148 % of control
dose: 5.0 mg/kg/injection, schedule: Q01DX001 (ip), vehicle: saline
  T/C: 125 % of control
dose: 6.0 mg/kg/injection, schedule: Q04DX002 (ip), vehicle: saline
  T/C: 140 % of control
dose: 6.7 mg/kg/injection, schedule: Q01DX001 (ip), vehicle: saline, evaluated on day 20
  T/C: 110 and 141 % of control
dose: 6.7 mg/kg/injection, schedule: Q01DX001 (ip), vehicle: saline, evaluated on day 23
  T/C: 116 % of control
dose: 6.7 mg/kg/injection, schedule: Q01DX001 (ip), vehicle: saline, evaluated on day 27
  T/C: 132 % of control
dose: 6.7 mg/kg/injection, schedule: Q01DX001 (ip), vehicle: saline, evaluated on day 30
  T/C: 89, 91, 97 (2×), 105, 107, 108, 109 (2×), 110 (2×), 114 (3×), 115 (2×), 117 (2×), 118 (2×), 119 (2×), 120 (4×), 121 (3×), 123, 124, 124 [9 of 10 alive], 125 (2×), 126, 128, 129, 130 (2×), 132 (4×), 135 (2×), 136, 137, 138 (3×), 139, 140, 141, 142, 143, 144 (2×), 145, 150, 154 % of control
dose: 6.7 mg/kg/injection, schedule: Q01DX001 (ip), vehicle: saline, evaluated on day 45
  T/C: 115, 117, 122, 132 (2×), 133, 136, 145 (2×), 148, 149 % of control
dose: 6.7 mg/kg/injection, schedule: Q01DX001 (ip), vehicle: saline, evaluated on day 46
  T/C: 125 % of control
dose: 6.7 mg/kg/injection, schedule: Q01DX001 (ip), vehicle: saline, evaluated on day 56
  T/C: 126 % of control
dose: 6.7 mg/kg/injection, schedule: Q01DX001 (ip), vehicle: saline, evaluated on day 60
  T/C: 126, 131, 135, 136, 145 % of control
dose: 6.7 mg/kg/injection, schedule: Q01DX001 (ip), vehicle: saline
  survivor count: 0 of 10
dose: 6.7 mg/kg/injection, schedule: Q04DX003 (ip), vehicle: saline
  T/C: 133 % of control
dose: 7.5 mg/kg/injection, schedule: Q04DX003 (ip), vehicle: saline
  survivor count: 8 of 8
dose: 8.0 mg/kg/injection, schedule: Q04DX003 (ip), vehicle: saline
  T/C: 125 % of control
dose: 9.0 mg/kg/injection, schedule: Q04DX002 (ip), vehicle: saline
  T/C: 127 % of control
dose: 10.0 mg/kg/injection, schedule: Q01DX001 (ip), vehicle: saline, evaluated on day 20
  T/C: 112 and 140 % of control
dose: 10.0 mg/kg/injection, schedule: Q01DX001 (ip), vehicle: saline, evaluated on day 23
  T/C: 111 % of control
dose: 10.0 mg/kg/injection, schedule: Q01DX001 (ip), vehicle: saline, evaluated on day 27
  T/C: 126 % of control
dose: 10.0 mg/kg/injection, schedule: Q01DX001 (ip), vehicle: saline, evaluated on day 30, list 1 of 2
  T/C: 87, 92, 99, 107, 108, 110, 112, 113, 115, 116 (2×), 117, 118 (2×), 122, 123, 125, 127, 128 (2×), 129, 130 (2×), 134 (2×), 136, 138, 138 [9 of 10 alive], 141, 143, 144 % of control
dose: 10.0 mg/kg/injection, schedule: Q01DX001 (ip), vehicle: saline, evaluated on day 30, list 2 of 2
  T/C: 91, 94, 106, 108, 109, 111, 112, 114, 115, 116 (2×), 117, 118, 122, 123, 124, 126, 127, 128 (2×), 130 (3×), 131, 134, 135, 138 (3×), 141, 143, 147 % of control
dose: 10.0 mg/kg/injection, schedule: Q01DX001 (ip), vehicle: saline, evaluated on day 45
  T/C: 115, 119, 125, 126, 128, 129, 130, 133, 136 (2×), 138, 144 % of control
dose: 10.0 mg/kg/injection, schedule: Q01DX001 (ip), vehicle: saline, evaluated on day 46
  T/C: 124 % of control
dose: 10.0 mg/kg/injection, schedule: Q01DX001 (ip), vehicle: saline, evaluated on day 56
  T/C: 128 % of control
dose: 10.0 mg/kg/injection, schedule: Q01DX001 (ip), vehicle: saline, evaluated on day 60
  T/C: 97, 117, 122, 130, 137, 138 (2×), 150 % of control
dose: 10.0 mg/kg/injection, schedule: Q01DX001 (ip), vehicle: saline
  survivor count: 0 of 10
dose: 10.0 mg/kg/injection, schedule: Q01DX005 (ip), vehicle: saline
  T/C: 135 % of control
dose: 10.0 mg/kg/injection, schedule: Q04DX003 (ip), vehicle: saline
  T/C: 131 % of control
dose: 12.5 mg/kg/injection, schedule: Q01DX001 (ip), vehicle: saline
  T/C: 128 % of control
dose: 15.0 mg/kg/injection, schedule: Q01DX001 (ip), vehicle: saline, evaluated on day 20
  T/C: 102 % of control
dose: 15.0 mg/kg/injection, schedule: Q01DX001 (ip), vehicle: saline, evaluated on day 23
  T/C: 107 % of control
dose: 15.0 mg/kg/injection, schedule: Q01DX001 (ip), vehicle: saline, evaluated on day 27
  T/C: 125 % of control
dose: 15.0 mg/kg/injection, schedule: Q01DX001 (ip), vehicle: saline, evaluated on day 30, list 1 of 2
  T/C: 90, 96, 102 (2×), 104, 105, 107, 109, 110 (2×), 111, 113, 114 (2×), 115, 116, 118, 119, 121, 124 (2×), 125, 126 (2×), 127, 128, 134, 135, 136, 140 % of control
dose: 15.0 mg/kg/injection, schedule: Q01DX001 (ip), vehicle: saline, evaluated on day 30, list 2 of 2
  T/C: 88, 93, 98, 102, 104, 105, 106, 108, 109, 110, 111, 112, 113, 114, 115 (2×), 117, 118, 120 [8 of 10 alive], 122, 124, 125, 126 (2×), 127 (2×), 131, 132, 134, 135, 138 % of control
dose: 15.0 mg/kg/injection, schedule: Q01DX001 (ip), vehicle: saline, evaluated on day 45
  T/C: 107, 113, 116, 119, 120, 124, 126, 128, 131, 136, 138 % of control
dose: 15.0 mg/kg/injection, schedule: Q01DX001 (ip), vehicle: saline, evaluated on day 46
  T/C: 125 % of control
dose: 15.0 mg/kg/injection, schedule: Q01DX001 (ip), vehicle: saline, evaluated on day 56
  T/C: 111 % of control
dose: 15.0 mg/kg/injection, schedule: Q01DX001 (ip), vehicle: saline, evaluated on day 60
  T/C: 118, 121, 130, 137, 142, 144 % of control
dose: 15.0 mg/kg/injection, schedule: Q01DX001 (ip), vehicle: saline
  survivor count: 0 of 10 and 10 of 10 (2×)
dose: 20.0 mg/kg/injection, schedule: Q01DX001 (ip), vehicle: saline, evaluated on day 30
  T/C: 127 and 132 % of control
dose: 20.0 mg/kg/injection, schedule: Q01DX001 (ip), vehicle: saline, evaluated on day 45
  T/C: 134 % of control
dose: 20.0 mg/kg/injection, schedule: Q01DX001 (ip), vehicle: saline, evaluated on day 60
  T/C: 133 % of control
